Measurements as given in paper PMC9203020.
These are yes or no findings as the source states them, for the method shown. In cells and extracts the contact can be indirect. A result given as binding can be weak or reduced; the word gives no strength.

Sequences of proteins named here, by UniProt entry; tags and fusion partners are left off. A change or cut given only in a name is not applied to a line headed by its entry.
UniProt Q7S5E3: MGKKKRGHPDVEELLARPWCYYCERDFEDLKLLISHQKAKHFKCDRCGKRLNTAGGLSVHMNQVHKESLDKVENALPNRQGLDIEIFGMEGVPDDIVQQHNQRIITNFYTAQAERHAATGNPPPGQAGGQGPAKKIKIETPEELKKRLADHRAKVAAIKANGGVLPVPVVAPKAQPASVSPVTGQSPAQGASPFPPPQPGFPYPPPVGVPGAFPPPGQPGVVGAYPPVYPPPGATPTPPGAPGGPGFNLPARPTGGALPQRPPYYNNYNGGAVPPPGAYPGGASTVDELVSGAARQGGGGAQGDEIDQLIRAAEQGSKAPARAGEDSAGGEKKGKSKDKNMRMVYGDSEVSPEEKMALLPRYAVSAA
UniProt Q7SEI1: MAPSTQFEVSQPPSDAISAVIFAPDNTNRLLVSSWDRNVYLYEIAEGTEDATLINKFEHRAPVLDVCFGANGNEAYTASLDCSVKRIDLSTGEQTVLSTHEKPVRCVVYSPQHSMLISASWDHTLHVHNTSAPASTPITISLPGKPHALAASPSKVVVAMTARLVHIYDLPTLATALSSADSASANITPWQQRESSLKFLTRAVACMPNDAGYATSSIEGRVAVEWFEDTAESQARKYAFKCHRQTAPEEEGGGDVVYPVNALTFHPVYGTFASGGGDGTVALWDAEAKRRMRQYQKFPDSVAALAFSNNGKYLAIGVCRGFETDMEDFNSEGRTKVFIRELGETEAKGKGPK

Target: Myc-BuGZ (Neurospora crassa) (UniProt Q7S5E3)
Assay: co-IP; anti-c-Myc monoclonal antibody and protein G beads on N. crassa mycelium extracts (2 mg/mL total protein; 50 mM HEPES pH 7.4, 137 mM NaCl, 10% glycerol), 4°C; western blot for endogenous Bub3

Substance: Bub3 (from UniProt Q7SEI1)
- binding: binds
